The target of this assay is T1, Staphylococcus aureus catabolite control protein A (CcpA), wild type (Staphylococcus aureus) (UniProt Q5HF38).
T1 sequence: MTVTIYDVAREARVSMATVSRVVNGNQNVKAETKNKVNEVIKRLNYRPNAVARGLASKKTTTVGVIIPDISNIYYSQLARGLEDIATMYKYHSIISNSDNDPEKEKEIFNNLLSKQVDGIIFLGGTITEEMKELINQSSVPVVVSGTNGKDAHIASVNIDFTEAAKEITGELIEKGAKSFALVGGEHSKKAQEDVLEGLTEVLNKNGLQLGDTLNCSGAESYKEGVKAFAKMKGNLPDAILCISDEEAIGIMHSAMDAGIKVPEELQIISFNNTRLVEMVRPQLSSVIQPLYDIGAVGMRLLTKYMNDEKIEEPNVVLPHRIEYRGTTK
Briefly: native gel or EMSA; native PAGE of the DNA-CcpA-(Hpr-P) ternary complex, in vitro, without Ag+; both purified. (In general: A gel shift assay detects complexes by their altered migration in electrophoresis.)

These are yes or no findings as the source states them, for the method shown. Some entries that bind do so weakly or less than the wild type.

B1: phosphorylated HPr (protein, UniProt P0A0E3 1-88)
chain: MEQNSYVIIDETGIHARPATMLVQTASKFDSDIQLEYNGKKVNLKSIMGVMSLGVGKDAEITIYADGSDESDAIQAISDVLSKEGLTK
modifications: phosphorylated (residue not stated)
In the case of B1, the binding result is on record as “binds”.

Values taken from PMC5855135 (Chemical Science, 2017).
